Results published in PMC5338821, “Structure determination of a major facilitator peptide transporter: Inward facing PepTSt from Streptococcus thermophilus crystallized in space group P3_(1)21” (PLoS ONE, 2017).
No constants are given. Whether binding was seen depends on the method and setting.

How the values were obtained:
[1] = molecular target: peptide transporter PepTSt from Streptococcus thermophilus (wild-type) (Streptococcus thermophilus) (UniProt Q5M4H8); assay: SEC; PepTSt solubilized and purified in DM (0.2%), final SEC step; both purified
[2] = molecular target: peptide transporter PepTSt from Streptococcus thermophilus (wild-type) (Streptococcus thermophilus) (UniProt Q5M4H8); assay: SEC; PepTSt purified in DM up to the IMAC step, detergent exchanged to NM (0.4%) in the SEC step; both purified
[3] = molecular target: peptide transporter PepTSt from Streptococcus thermophilus (wild-type) (Streptococcus thermophilus) (UniProt Q5M4H8); assay: crystal structure; space group P3_(1)21; protein in 0.4% NM, sitting-drop vapor diffusion, 277 K, 30% PEG550 MME, HEPES pH 8.0, 1.2% Fos-Choline 10; both purified

- binding [1]: no binding (condition: in DM (0.2%))
- binding [2]: no binding (condition: in NM (0.4%))
B1: peptide transporter PepTSt from Streptococcus thermophilus (wild-type) (natural protein)
chain: MEDKGKTFFGQPLGLSTLFMTEMWERFSYYGMRAILLYYMWFLISTGDLHITRATAASIMAIYASMVYLSGTIGGFVADRIIGARPAVFWGGVLIMLGHIVLALPFGASALFGSIILIIIGTGFLKPNVSTLVGTLYDEHDRRRDAGFSIFVFGINLGAFIAPLIVGAAQEAAGYHVAFSLAAIGMFIGLLVYYFGGKKTLDPHYLRPTDPLAPEEVKPLLVKVSLAVAGFIAIIVVMNLVGWNSLPAYINLLTIVAIAIPVFYFAWMISSVKVTSTEHLRVVSYIPLFIAAVLFWAIEEQGSVVLATFAAERVDSSWFPVSWFQSLNPLFIMLYTPFFAWLWTAWKKNQPSSPTKFAVGLMFAGLSFLLMAIPGALYGTSGKVSPLWLVGSWALVILGEMLISPVGLSVTTKLAPKAFNSQMMSMWFLSSSVGSALNAQLVTLYNAKSEVAYFSYFGLGSVVLGIVLVFLSKRIQGLMQGVE
notes: PepTSt, major facilitator superfamily peptide transporter of Streptococcus thermophilus; Dimer in LMNG and DDM, monomer in DM and NM; also called Ce27; source: Escherichia coli C41, membrane solubilization, purified (IMAC, SEC) in DDM, DM, NM or LMNG; not shown: hexahistidine, C-terminal, cleaved
- binding [3]: no binding (condition: purified and crystallized in NM)
